Experimental data reported in patent US12618845B2, “Methods and compositions for protein sequencing” (Quantum-Si Incorporated, priority 2018, dated 2026).
Like-named read-outs stand apart in the source and are kept apart here.

B1: hTET: Pyrococcus horikoshii TET aminopeptidase, SEQ ID NO: 59 (protein, listed as Pyrococcus horikoshii)
chain: MEVRNMVDYELLKKVVEAPGVSGYEFLGIRDVVIEEIKDYVDEVKVDKLGNVIAHKKGEGPKVMIAAHMDQIGLMVTHIEKNGFLRVAPIGGVDPKTLIAQRFKVWIDKGKFIYGVGASVPPHIQKPEDRKKAPDWDQIFIDIGAESKEEAEDMGVKIGTVITWDGRLERLGKHRFVSIAFDDRIAVYTILEVAKQLKDAKADVYFVATVQEEVGLRGARTSAFGIEPDYGFAIDVTIAADIPGTPEHKQVTHLGKGTAIKIMDRSVICHPTIVRWLEELAKKHEIPYQLEILLGGGTDAGAIHLTKAGVPTGALSVPARYIHSNTEVVDERDVDATVELMTKALENIHELKI
B2: VPr: Vibrio proteolyticus aminopeptidase (protein)
chain: MPPITQQATVTAWLPQVDASQITGTISSLESFTNRFYTTTSGAQASDWIASEWQALSASLPNASVKQVSHSGYNQKSVVMTITGSEAPDEWIVIGGHLDSTIGSHTNEQSVAPGADDDASGIAAVTEVIRVLSENNFQPKRSIAFMAYAAEEVGLRGSQDLANQYKSEGKNVVSALQLDMTNYKGSAQDVVFITDYTDSNFTQYLTQLMDEYLPSLTYGFDTCGYACSDHASWHNAGYPAAMPFESKFNDYNPRIHTTQDTLANSDPTGSHAKKFTQLGLAYAIEMGSATGDTPTPGNQ

Test system: peptide substrates
Format: biochemical
Conditions: RT/0.5 hr; for Pdt, share of −3 product / Pdt, share of −4 product: substrate […]1 (SEQ ID NO: 13), 300 μM Peptide, 8 μM enzyme
[1] = 10 mM Mg(OAc)2, 50 mM MOPS pH 8, 60 mM KOAc

| Molecule | Pdt (cleavage product, substrate […]1 (SEQ ID NO: 156), 1 mM Peptide, 1.0 μM enzyme, 10 mM Mg(OAc)2, 50 mM MOPS pH 8, 60 mM KOAc) | Pdt, share of −3 product [1] | Pdt, share of −4 product [1] | Pdt, share of −3 product (50/50 MOPS Mg buffer/RB1) | Pdt, share of −4 product (50/50 MOPS Mg buffer/RB1) |
| --- | --- | --- | --- | --- | --- |
| B1 | WADDDWK |  |  |  |  |
| B2 |  | 30% −3, | 70% −4 | 70% −3, | 30% −4 |
